Measurements taken from patent US20090306035A1, “Compounds and Methods for modulating the Silencing of a Polynucleotide of Interest” (Emory University, priority 2005, published 2009).
“Also recorded” adds a separate entry of the source. At least one structure is not confirmed: it was looked up by name or label, or the drawing left a doubt.

Tested on: shRNA against Luciferase mRNA
Assay: GL-3 luciferase reporter transfected into cells expressing shRNA against Luciferase mRNA
Assay type: cell-based
Settings: GL-3 luciferase plus shLuc, FIG. 5
Text: In this example, a luciferase reporter construct GL-3 was transfected into the cells expressing shRNA against Luciferase mRNA.

CC1COc2c(N3CCN(C)CC3)c(F)cc3c(=O)c(C(=O)O)cn1c23 (stereo not shown) [ofloxacin]
knock-down efficiency of shRNA against luciferase mRNA (relative luciferase activity): enhance siRNA-mediated mRNA degradation; also recorded: increased the knock-down efficiency
